For at least one entry, the source does not settle the construct or the ends of the probe. A negative result means that nothing was seen under these conditions.

This series relates to GST-bZIP73Jap (Oryza sativa (japonica allele)). Briefly: EMSA. Particulars: Chemiluminescent EMSA kit (Thermo); pH and temperature not stated; recombinant protein; protein details: GST (pGEX4T-3). On the technique in general: In EMSA bound probe runs differently from free probe, usually more slowly.
For the sequence “GGACGGGCGTCGCTCGCGCGGCGGTTCACGTGGCGGCTAGCAGAGCGCCCGCACGCGGGTGGGCGCGAGC (double strand) [OsINV4 promoter G-box probe]”, the binding result is listed as “binds”. The entry for “TTGAAAAAATAATGGGTAGAAAAAACTATCAATTATAAAAGACGAAACATTGAGATATATGTATTAGAGA (double strand) [OsMST7(MG) probe]” is “no binding”; for “TTGAAAAAATAATGGGTAGAAAAAACTATCAATTATACGTGACGAAACATTGAGATATATGTATTAGAGA (double strand) [OsMST7 promoter G-box probe]” it is “binds”. The result for “GGACGGGCGTCGCTCGCGCGGCGGTTCAAGGCGCGGCTAGCAGAGCGCCCGCACGCGGGTGGGCGCGAGC (double strand) [OsINV4(MG) probe]” reads “no binding”; that for “TGTACACTGATCTTGTGCTATAGCCTATAGGACGTGCCATACAGTACGAAAAATATCATTTTATATTTTC (double strand) [OsMST8 promoter G-box probe]”, “binds”; that for “TGTACACTGATCTTGTGCTATAGCCTATAGGAAAAGCCATACAGTACGAAAAATATCATTTTATATTTTC (double strand) [OsMST8(MG) probe]”, “no binding”.

The values above are taken from publication PMC6686130.
